Data reported in PubChem BioAssay AID330 (DTP/NCI, 2004).
The list does not hold the whole screen: it gathers tests that were run many times, whatever their T/C, doses with no T/C, and many T/C values between a quarter and a half above the control. Further doses and runs are listed elsewhere. T/C is the treated group as % of the vehicle group. Some entries give survivors of the animals treated and no T/C: the source holds a T/C of zero for them, seemingly a mark for toxic or unscored doses. Some doses without a T/C left all or most animals alive at the check, yet need not have been tolerated: survival well below the control is almost never listed, so the zero probably covers shortened survival too. Counts of survivors are from the toxicity check (mostly the fifth day) where no day follows; animals may have died later. Schedule codes are those of the source, read here as Q, the interval in days (D) or hours (H), X, the number of doses. Some doses were run more than once; the values are given in rising order. For survival time, the PubChem record calls one and a half times the control and up active, and a quarter to a half above the control has no call in these data; cut-offs in other NCI protocols can differ. Some T/C values carry the count of animals alive at the toxicity check (mostly the fifth day); without a count, all were alive then.

System: P388 leukemia ip, CD2F1 mice, survival T/C
Assay: NCI In Vivo Anticancer Drug Screen. Data for tumor model P388 Leukemia (intraperitoneal) in CD2F1 (CDF1) mice
Conditions: T/C endpoint: median survival time, higher T/C = longer survival
[1] = dose: 100.0 mg/kg/injection, schedule: Q01DX005 (ip), vehicle: Klucel (hydroxypropylcellulose) (HPC)
[2] = dose: 200.0 mg/kg/injection, schedule: Q01DX005 (ip), vehicle: Klucel (hydroxypropylcellulose) (HPC)
[3] = dose: 240.0 mg/kg/injection, schedule: Q01DX005 (ip), vehicle: saline with Tween-80
[4] = dose: 200.0 mg/kg/injection, schedule: Q01DX009 (ip), vehicle: saline with Tween-80
[5] = dose: 100.0 mg/kg/injection, schedule: Q01DX009 (ip), vehicle: Klucel (hydroxypropylcellulose) (HPC)
[6] = dose: 200.0 mg/kg/injection, schedule: Q01DX009 (ip), vehicle: Klucel (hydroxypropylcellulose) (HPC)
[7] = dose: 50.0 mg/kg/injection, schedule: Q01DX005 (ip), vehicle: Klucel (hydroxypropylcellulose) (HPC)
[8] = dose: 100.0 mg/kg/injection, schedule: Q01DX009 (ip), vehicle: saline with Tween-80
[9] = dose: 50.0 mg/kg/injection, schedule: Q01DX009 (ip), vehicle: saline with Tween-80
[10] = dose: 120.0 mg/kg/injection, schedule: Q01DX005 (ip), vehicle: Klucel (hydroxypropylcellulose) (HPC)

Compound: COc1cccc2c1C(=N)c1c(O)c3c(c(O)c1C2=O)C[C@@](O)(C(O)CO)C[C@@H]3OC1CC(N2CCOCC2)C(O)C(C)O1 (stereo partly drawn)
- T/C (dose: 6.25 mg/kg/injection, schedule: Q04DX003 (ip), vehicle: water): 126 % of control
- T/C (dose: 12.5 mg/kg/injection, schedule: Q04DX003 (ip), vehicle: water): 148 % of control
- T/C (dose: 25.0 mg/kg/injection, schedule: Q04DX003 (ip), vehicle: water): 127 % of control
- T/C (dose: 37.5 mg/kg/injection, schedule: Q04DX003 (ip), vehicle: water): 125 % of control
- T/C (dose: 75.0 mg/kg/injection, schedule: Q04DX003 (ip), vehicle: water): 131 % of control

Compound: CCN(CC)c1ccc2nc3ccc(N=Nc4ccc(O)cc4)cc3[n+](-c3ccccc3)c2c1
- survivor count (dose: 200.0 mg/kg/injection, schedule: Q01DX005 (ip), vehicle: saline with Tween-80): 0 of 5

Compound: O=C1C=CC(=O)C1=Cc1ccc(O)cc1
- survivor count (dose: 25.0 mg/kg/injection, schedule: Q04DX002 (ip), vehicle: saline with Tween-80): 0 of 6
- survivor count (dose: 50.0 mg/kg/injection, schedule: Q04DX002 (ip), vehicle: saline with Tween-80): 0 of 6
- survivor count (dose: 100.0 mg/kg/injection, schedule: Q04DX002 (ip), vehicle: saline with Tween-80): 0 of 6

Compound: O=[N+]([O-])c1cccc(C(Nc2nncs2)Nc2nncs2)c1
- T/C [1]: 126 % of control
- T/C [2]: 129 % of control

Compound: CC[PH+](CC)CC.[Cl][Au]
- survivor count (dose: 10.0 mg/kg/injection, schedule: Q01DX009 (ip), vehicle: Klucel (hydroxypropylcellulose) (HPC)): 3 of 6
- survivor count (dose: 20.0 mg/kg/injection, schedule: Q01DX009 (ip), vehicle: Klucel (hydroxypropylcellulose) (HPC)): 1 of 6 and 4 of 6

Compound: O=C1C(=C(O)c2ccccc2)C(=O)c2ccccc21
- survivor count [3]: 0 of 6

Compound: NC1=NS(=O)(=O)Nc2nc[nH]c21
- survivor count [4]: 6 of 6

Compound: COc1ccc(/C=C2\CCc3cc(OC)ccc3C2=O)cc1
- survivor count (dose: 50.0 mg/kg/injection, schedule: Q01DX009 (ip), vehicle: Klucel (hydroxypropylcellulose) (HPC)): 6 of 6
- survivor count [5]: 6 of 6
- survivor count [6]: 6 of 6

Compound: NC(C(=O)O)C(N)C(=O)O (stereo not drawn)
- survivor count [4]: 6 of 6

Compound: CNC(=O)Oc1ccc[nH]c1=O
- T/C (dose: 64.0 mg/kg/injection, schedule: Q01DX009 (ip), vehicle: saline with Tween-80): 131 % of control
- T/C (dose: 100.0 mg/kg/injection, schedule: Q01DX009 (ip), vehicle: saline): 125 and 127 % of control
- T/C (dose: 128.0 mg/kg/injection, schedule: Q01DX009 (ip), vehicle: saline with Tween-80): 140 % of control
- T/C (dose: 200.0 mg/kg/injection, schedule: Q01DX009 (ip), vehicle: saline): 128 and 134 % of control
- T/C (dose: 256.0 mg/kg/injection, schedule: Q01DX009 (ip), vehicle: saline with Tween-80): 131 and 142 % of control
- T/C (dose: 400.0 mg/kg/injection, schedule: Q01DX009 (ip), vehicle: saline): 136 % of control [4 of 6 alive]
- T/C (dose: 400.0 mg/kg/injection, schedule: Q01DX009 (sc), vehicle: saline): 145 % of control [5 of 6 alive]
- survivor count (dose: 512.0 mg/kg/injection, schedule: Q01DX009 (ip), vehicle: saline with Tween-80): 0 of 6 and 1 of 6
- survivor count (dose: 600.0 mg/kg/injection, schedule: Q01DX009 (ip), vehicle: saline): 0 of 6

Compound: Cc1cc(=O)c2ccccc2s1
- survivor count [4]: 3 of 6

Compound: CN(C)c1ccc2c(SCC(=O)OCC(=O)C3(O)CCC4C5CCC6=CC(=O)C=CC6(C)C5C(O)CC43C)c3ccc(N(C)C)cc3nc2c1 (stereo not drawn)
- T/C [7]: 125 % of control [5 of 6 alive]
- survivor count [1]: 1 of 5
- survivor count [2]: 1 of 6

Compound: S=P(NCCS)(N1CC1)N1CC1
- T/C [8]: 145 % of control
- survivor count [4]: 4 of 6
- survivor count (dose: 264.0 mg/kg/injection, schedule: Q04DX003 (ip), vehicle: saline with Tween-80): 3 of 6
- survivor count (dose: 400.0 mg/kg/injection, schedule: Q01DX009 (ip), vehicle: saline with Tween-80): 2 of 6
- T/C (dose: 400.0 mg/kg/injection, schedule: Q04DX003 (ip), vehicle: saline with Tween-80): 136 % of control
- survivor count (dose: 600.0 mg/kg/injection, schedule: Q04DX003 (ip), vehicle: saline with Tween-80): 4 of 6

Compound: Nc1nc2ccc(CNc3ccc(C(=O)NC(CCC(=O)O)C(=O)O)cc3)nc2c(=O)[nH]1 (stereo not drawn)
- survivor count (dose: 200.0 mg/kg/injection, schedule: Q04DX003 (ip), vehicle: saline with Tween-80): 2 of 6

Compound: C1CC2CCC(N3CCCC3)C(C1)C21OCCO1 (stereo not drawn)
- survivor count [3]: 0 of 6

Compound: O=NNc1ccc(Sc2ccc(NN=O)nc2)cc1
- survivor count (dose: 25.0 mg/kg/injection, schedule: Q01DX009 (ip), vehicle: water): 6 of 6
- survivor count (dose: 50.0 mg/kg/injection, schedule: Q01DX009 (ip), vehicle: water): 5 of 6

Compound: CC(C)(C)/C=C/N=NNc1ccccc1C(=O)NC(C)(C)C
- survivor count (dose: 120.0 mg/kg/injection, schedule: Q01DX005 (ip), vehicle: Klucel + Tween-80): 6 of 6
- survivor count (dose: 240.0 mg/kg/injection, schedule: Q01DX005 (ip), vehicle: Klucel + Tween-80): 6 of 6

Compound: COc1ccc([I+]c2cccc(Cl)c2)cc1Cl
- T/C (dose: 1.56 mg/kg/injection, schedule: Q01DX009 (ip), vehicle: saline with Tween-80): 135 % of control
- T/C (dose: 3.12 mg/kg/injection, schedule: Q01DX009 (ip), vehicle: saline with Tween-80): 135 % of control
- T/C (dose: 6.25 mg/kg/injection, schedule: Q01DX009 (ip), vehicle: saline with Tween-80): 142 and 143 % of control
- survivor count [9]: 1 of 6
- survivor count [8]: 1 of 6
- survivor count [4]: 0 of 6

Compound: Nc1[nH]c(=S)[nH]c(=O)c1NS(=O)(=O)c1cccc([N+](=O)[O-])c1
- T/C (dose: 60.0 mg/kg/injection, schedule: Q01DX005 (ip), vehicle: Klucel (hydroxypropylcellulose) (HPC)): 141 % of control
- T/C [10]: 133 % of control
- T/C (dose: 240.0 mg/kg/injection, schedule: Q01DX005 (ip), vehicle: Klucel (hydroxypropylcellulose) (HPC)): 136 % of control

Compound: COc1ccc(OC)c(N2C(=O)C(Cl)=C(Cl)C2=O)c1
- survivor count (dose: 100.0 mg/kg/injection, schedule: Q01DX001 (ip), vehicle: saline with Tween-80): 0 of 6
- survivor count (dose: 200.0 mg/kg/injection, schedule: Q01DX001 (ip), vehicle: saline with Tween-80): 0 of 6
- survivor count (dose: 400.0 mg/kg/injection, schedule: Q01DX001 (ip), vehicle: saline with Tween-80): 0 of 6

Compound: COc1nc(N)c([N+](=O)[O-])c(C(Br)Br)n1
- survivor count [7]: 1 of 6
- survivor count [1]: 0 of 6
- survivor count [2]: 0 of 6

Compound: C=C(C)C(=O)NC(N)=NC#N
- survivor count [10]: 3 of 6

Compound: COc1ccc(N2C(=O)c3ccc4c5ccc6c7c(ccc(c8ccc(c3c48)C2=O)c75)C(=O)NC6=O)cc1
- survivor count [7]: 6 of 6

Compound: CCCCN(CCCC)CC(O)c1cc2ccc(C(F)(F)F)cc2c2cc(C(F)(F)F)ccc12 (stereo not drawn)
- survivor count [9]: 6 of 6

Compound: CC(=O)Nc1ccc(NC(=O)c2ccc([As](O)O)cc2)cc1
- T/C (dose: 100.0 mg/kg/injection, schedule: Q04DX003 (ip), vehicle: other): 130 % of control
- T/C (dose: 200.0 mg/kg/injection, schedule: Q04DX003 (ip), vehicle: other): 125 % of control
- T/C (dose: 400.0 mg/kg/injection, schedule: Q04DX003 (ip), vehicle: other): 125 % of control [4 of 6 alive]

Compound: CC(Br)CN(CC(C)Br)c1ccc(-c2ccccc2)cc1 (stereo not drawn)
- survivor count [5]: 6 of 6
- survivor count [6]: 1 of 6

Compound: C/C(=C/c1ccccc1)C(=O)C1C(c2ccccc2)CC(O)C(C)C1c1ccccc1 (stereo not drawn)
- survivor count (dose: 400.0 mg/kg/injection, schedule: Q04DX003 (ip), vehicle: Klucel (hydroxypropylcellulose) (HPC)): 6 of 6
